Reference: paper PMC10616083
No constants are given. Whether binding was seen depends on the method and setting. In cells and extracts the contact can be indirect. Some entries that bind do so weakly or less than the wild type.

Sequences of proteins named here, by UniProt entry; tags and fusion partners are left off. A change or cut given only in a name is not applied to a line headed by its entry. A line that says so, or that is headed by a name, gives the form on record, which may keep a tag or linker.
Runt-related transcription factor 1 (RUNX1), endogenous (human (endogenous in K562, PBMCs)) (Q01196, form named): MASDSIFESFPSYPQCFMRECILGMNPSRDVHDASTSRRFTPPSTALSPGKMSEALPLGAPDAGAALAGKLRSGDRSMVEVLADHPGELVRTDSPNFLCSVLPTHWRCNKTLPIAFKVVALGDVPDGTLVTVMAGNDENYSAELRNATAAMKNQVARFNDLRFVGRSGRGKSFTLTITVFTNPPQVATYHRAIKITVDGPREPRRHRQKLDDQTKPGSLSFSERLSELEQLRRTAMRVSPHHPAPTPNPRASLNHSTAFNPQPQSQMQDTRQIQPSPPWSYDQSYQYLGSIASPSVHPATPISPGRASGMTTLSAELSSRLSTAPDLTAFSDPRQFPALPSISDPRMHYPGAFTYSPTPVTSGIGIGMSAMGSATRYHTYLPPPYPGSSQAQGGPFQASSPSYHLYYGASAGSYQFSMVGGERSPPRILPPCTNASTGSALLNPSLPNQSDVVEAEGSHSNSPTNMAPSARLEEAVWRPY
RUNX1 S94D (phospho-mimetic mutant), ectopically expressed (pDsRed1-N1 construct) (Q01196, form named): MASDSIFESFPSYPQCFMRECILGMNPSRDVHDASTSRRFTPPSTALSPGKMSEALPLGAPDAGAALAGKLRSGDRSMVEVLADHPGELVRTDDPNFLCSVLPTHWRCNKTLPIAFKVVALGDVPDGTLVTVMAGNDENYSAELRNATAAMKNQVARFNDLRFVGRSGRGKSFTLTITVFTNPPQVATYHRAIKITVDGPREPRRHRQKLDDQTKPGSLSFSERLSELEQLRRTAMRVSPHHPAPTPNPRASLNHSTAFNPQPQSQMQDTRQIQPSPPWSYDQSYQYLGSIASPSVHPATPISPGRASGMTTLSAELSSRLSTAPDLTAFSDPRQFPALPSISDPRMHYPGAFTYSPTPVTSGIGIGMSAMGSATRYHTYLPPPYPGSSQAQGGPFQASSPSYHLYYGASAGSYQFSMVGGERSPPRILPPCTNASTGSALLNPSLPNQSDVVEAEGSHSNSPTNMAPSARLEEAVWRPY
UniProt P40763: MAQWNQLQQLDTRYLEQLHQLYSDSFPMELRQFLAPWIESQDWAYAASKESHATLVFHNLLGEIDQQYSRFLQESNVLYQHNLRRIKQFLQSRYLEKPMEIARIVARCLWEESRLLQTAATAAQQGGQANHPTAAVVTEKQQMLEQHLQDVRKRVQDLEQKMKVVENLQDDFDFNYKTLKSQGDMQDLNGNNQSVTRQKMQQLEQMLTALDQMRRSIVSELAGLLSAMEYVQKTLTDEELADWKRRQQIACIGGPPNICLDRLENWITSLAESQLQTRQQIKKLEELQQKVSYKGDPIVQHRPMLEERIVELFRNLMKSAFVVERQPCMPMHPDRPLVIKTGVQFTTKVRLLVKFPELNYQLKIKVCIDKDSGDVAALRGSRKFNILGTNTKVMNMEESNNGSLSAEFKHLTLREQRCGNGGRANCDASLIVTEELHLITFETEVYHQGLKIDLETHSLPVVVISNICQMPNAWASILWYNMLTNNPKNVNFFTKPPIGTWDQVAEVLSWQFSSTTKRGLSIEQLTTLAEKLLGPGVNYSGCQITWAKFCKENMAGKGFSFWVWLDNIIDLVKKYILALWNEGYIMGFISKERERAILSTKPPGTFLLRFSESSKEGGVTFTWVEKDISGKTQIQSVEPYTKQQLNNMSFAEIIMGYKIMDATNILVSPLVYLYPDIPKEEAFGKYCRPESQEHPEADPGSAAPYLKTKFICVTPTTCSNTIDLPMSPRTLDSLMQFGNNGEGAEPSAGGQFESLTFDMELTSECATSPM

What was measured:
[1] = target: Runt-related transcription factor 1 (RUNX1), endogenous (human (endogenous in K562, PBMCs)) (UniProt Q01196); assay: co-IP; endogenous proteins, K562 WT lysate (750 ug protein) precipitated with 1 ug RUNX1 antibody overnight at 4 C, protein A/G plus agarose beads, immunoblot; cells untreated or treated with metformin (10 mM) or compound C (5 uM) for 6 h
[2] = target: RUNX1 S94D (phospho-mimetic mutant), ectopically expressed (pDsRed1-N1 construct) (human) (UniProt Q01196); assay: co-IP; HEK-293T cells transfected with RUNX1 WT, S94A or S94D, with or without metformin (10 mM, 6 h, given 48 h after transfection); lysate precipitated with RUNX1 antibody, immunoblot for endogenous STAT3
[3] = target: RUNX1 WT, ectopically expressed (pDsRed1-N1 construct) (human) (UniProt Q01196); assay: as above
[4] = target: Runt-related transcription factor 1 (RUNX1), endogenous (human (endogenous in K562, PBMCs)) (UniProt Q01196); assay: co-IP; endogenous proteins, lysates of PBMCs from subjects (500 ug protein) precipitated with RUNX1 antibody, immunoblot; cells with or without metformin (10 mM) for 6 h
[5] = target: Runt-related transcription factor 1 (RUNX1), endogenous (human (endogenous in K562, PBMCs)) (UniProt Q01196); assay: co-IP; endogenous proteins, lysates of imatinib-resistant K562 IR1 and IR2 cells precipitated with RUNX1 antibody, immunoblot; cells untreated or treated with metformin (10 mM), compound C (5 uM), imatinib (1 uM) or metformin plus imatinib for 6 h

binding [1]: binds
binding [2]: binds
binding [3]: binds
binding [4]: binds
binding [5]: binds
Substance: signal transducer and activator of transcription 3 (STAT3), endogenous (from UniProt P40763 1-770)
